In US20260077065A1, “Compositions and Methods for Assessing Kinase Activity” (The Board of Trustees of the Leland Stanford Junior …, priority 2022, published 2026):
At least one compound was matched to its structure with a doubt left.

Columns and labels:
ERK [1] = experiment: U87-EGFRvIII stable tKiMBI/tKiMBImut reporter cell lines, bioluminescence; type: cell-based, human; settings: tKiMBImut-expressing cells
Method: Next, the ability of KiMBIs to report ERK kinase inhibition in human tumor xenografts in mice was tested. U87-EGFRvIII cells were transduced with lentiviruses expressing tKiMBI-T2A-AkaLuc, where AkaLuc allows kinase-independent tracking of tumor location and size (FIG. 6a). Transduced cells were sorted by fluorescence-activated cell sorting (FACS) and selected by antibiotics to generate polyclonal stable cell lines.
Generation of KiMBI-expressing stable tumor cell lines. U87-EGFRvIII and LN229 cells were lentiviral transduced with pLL3.7m-CMV-KiMBI-T2A-AkaLuc-P2A-Blasticidin. Then, 72 h after transfection, cells were dissociated with trypsin and resuspended in DMEM and then changed to PBS. Suspended cells were sorted for the population with medium fluorescence level (20-40%) on a fluorescence-activated cell sorter (FACS), the FACSJazz (BD Biosciences) at Stanford Shared FACS Facility. […] Flow cytometry data were analyzed on FlowJo software. The stable KiMBI expression was validated by examination of tdTomato fluorescence in tKiMBI (and its variants) using an EVOS FL Autoimaging system (Thermo Scientific).
In vitro cell-based bioluminescent assay. […] Then, for assaying luminescence, Nano-Glo live cell assay system (Promega) was used following manufacturer's instructions. […]

ERK [2] = experiment: Molecular imaging of ERK inhibition in subcutaneous U87-EGFRvIII tumor model; type: in vivo; settings: same mice, two days after first imaging
ERK [3] = experiment: Molecular imaging of ERK inhibition in KiMBI-encoded AAV infected mouse brain; type: in vivo
Method: Using CFz, tested was whether tKiMBI could report the BBB-permeance of ERK pathway inhibitors in living mice. tKiMBI-T2A-caMEK or the negative control tKiMBImut-T2A-caMEK were expressed in mouse striatum by AAV transduction (FIG. 9a).
General procedures of kinase inhibitor injection and in vivo bioluminescence imaging. […] For KiMBI (NanoLuc-based bioluminescent reporter) imaging, mice were i.p. injected with either 1.3 μmol (0.56 mg) of fluorofurimazine (FFz) or cephalofurimazine (CFz) in 150 μl of injectable formulation containing 6 mg poloxamer-407 (P-407) in Dulbecco Phosphate Buffered Saline (DPBS, without Ca^2+ or Mg^2+, no. 21-031-CV, Corning) for imaging. Immediately after luciferin administration, mice were anesthetized using isoflurane, and images were acquired in the Ami HT optical imaging system every 1 min for 10 min, with an air flow containing 1-2% isoflurane for stable anesthesia. Imager settings were: emission filter, open; field of view, 25 cm; f-stop 1.2; binning, 2×2 and exposure time, 30 s. Images were analyzed in Aura 4.0 in vivo imaging software. The above-mentioned conditions and settings were for most in vivo studies unless otherwise stated in the specific procedures.
Molecular imaging of ERK inhibition in KIMBI-encoded AAV infected mouse brain. […]

ERK [4] = experiment: Imaging of ERK inhibition in intracranially implanted LN-229 cells; type: in vivo, mice; settings: xenografted LN-229 cells
extracranial tumors = settings: 1 mg/kg; cited from earlier work

CC(=O)Nc1cccc(-n2c(=O)n(C3CC3)c(=O)c3c(Nc4ccc(I)cc4F)n(C)c(=O)c(C)c32)c1 [GSK1120212, trametinib]
effect on bioluminescence of control cell lines (ERK [1]): slightly reduced bioluminescence
ERK pathway inhibition reported by tKiMBI (ERK [2]): successful ERK pathway inhibition
tKiMBI signal in brain (ERK [3]; 1 mg/kg, CFz imaging): no signal increase
able to induce a signal increase in KiMBI (ERK [3]; AAV-infected mice brain (discussion)): not
induction of tKiMBI signals (ERK [4]): induce tKIMBI signals
efficacy against extracranial tumors (extracranial tumors): effective
